Source: the supplement of paper PMC4962491
± gives the standard deviation of the averaged measurements. Only a part is listed here, and it is no random draw. This data set is noisy: repeats of one test often differ as much as different tests do.

Tested on: FaDu
Test: mitochondrial oxygen consumption rate normalised to cell number, Z score over the library; higher = higher oxygen consumption (negative = OCR reduction)
Conditions: treatment time 24 h, assay medium: 5 mM galactose, 5 mM pyruvate, 4 mM glutamine
Procedure: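 Primary screen: FaDu cells were incubated 24 h with Pharmakon 1600 / TDI oncology set compounds at 2 or 10 uM. Mitochondrial-specific OCR (basal minus 2 uM antimycin A) was measured on a Seahorse XF96 in assay medium with 5 mM galactose, 5 mM pyruvate and 4 mM glutamine, then corrected for Hoechst cell number and expressed as a Z score […]. Compounds that cut cell number by >66% were excluded. Two repeats.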

Row | Structure (SMILES) | mitochondrial oxygen consumption rate normalised (2 µM) | mitochondrial oxygen consumption rate normalised (10 µM)
1 | CCOC(=O)NC(=S)Nc1ccccc1NC(=S)NC(=O)OCC | -1 ± 1.1 | -0.249 ± 0.0062
2 | CC(=O)Oc1ccc(Cl)c2cccnc12 | -1.66 ± 0.5 | –
3 | O=P1(NCCCl)OCCCN1CCCl (stereo not drawn) [Ifosfamide] | 0.177 ± 0.57 | –
4 | O=P1(NCCCl)OCCCN1CCCl (stereo not drawn) | 0.478 ± 1.6 | –
5 | Oc1ccc(Cl)cc1 | -0.023 ± 0.38 | –
6 | CC(C)c1c(CN(C)C(C)Cc2ccccc2)n(C)n(-c2ccccc2)c1=O (stereo not drawn) | -0.187 ± 0.22 | –
7 | O=c1[nH]c(=O)n(Cl)c(=O)n1Cl | 0.618 ± 0.097 | 0.623 ± 1.2
8 | NC(=O)CN1CCCC1=O | -0.39 ± 0.64 | –
9 | C[C@@H](CO)NC(=O)[C@@H]1C=C2c3cccc4[nH]cc(c34)C[C@H]2N(C)C1 | 0.0751 ± 0.15 | –
10 | Clc1ccc(C(OCCN2CCCCC2)c2ccccc2)cc1 (stereo not drawn) | -0.571 ± 0.44 | –
11 | Cc1c(N)nc([C@H](CC(N)=O)NC[C@H](N)C(N)=O)nc1C(=O)N[C@H](C(=O)N[C@H](C)[C@@H](O)[C@H](C)C(=O)N[C@H](C(=O)NCCc1nc(-c2nc(C(=O)NCCC[S+](C)C)cs2)cs1)[C@@H](C)O)[C@@H](OC1OC(CO)C(O)C(O)C1OC1OC(CO)C(O)C(OC(N)=O)C1O)c1cnc[nH]1 (stereo partly drawn) [Bleomycin] | 0.429 ± 0.62 | –
12 | Oc1ncc(N(CCCl)CCCl)c(O)n1 [Uracil mustard] | 0.783 ± 0.74 | –
13 | NC(=O)C[S+]([O-])C(c1ccccc1)c1ccccc1 (stereo not drawn) | -0.471 ± 0.58 | –
14 | CC(=O)OCC1=C(C(=O)O)N2C(=O)[C@@H](NC(=O)CCC[C@@H](N)C(=O)O)[C@H]2SC1 | -0.887 ± 0.38 | –
15 | Cc1cccc(C)c1NC1=NCCCS1 | 1.4 ± 0.75 | –
16 | CNC(C)C(O)c1ccccc1 (stereo not drawn) | -0.171 ± 0.82 | 0.176 ± 0.34
17 | COc1cc([C@@H]2c3cc4c(cc3[C@H](O)[C@H]3COC(=O)[C@H]23)OCO4)cc(OC)c1OC | -1.42 ± 0.17 | –
18 | Cc1ccc(O)cc1.Cc1cccc(O)c1.Cc1ccccc1O | 1.49 ± 0.75 | –
19 | CCNC1(c2cccs2)CCCCC1=O (stereo not drawn) | -0.00527 ± 0.29 | –
20 | C[C@@H]1CC[C@H]2[C@@H](C)C(=O)O[C@@H]3O[C@@]4(C)CC[C@@H]1[C@]32OO4 | 0.424 ± 0.75 | –
21 | CC[C@H]1[C@@H]2C[C@H]3[C@@H]4N(C)c5ccccc5[C@]45C[C@@H]([C@@H]2[C@H]5O)N3[C@@H]1O | -0.41 ± 0.68 | –
22 | CC1(C)C(C=C(Cl)Cl)C1C(=O)OCc1cccc(Oc2ccccc2)c1 (stereo not drawn) | 0.301 ± 0.042 | –
23 | CCN(C(C)=O)c1cccc(-c2ccnc3c(C#N)cnn23)c1 | -0.0611 ± 0.038 | –
24 | CNC(C)[C@H](O)c1ccccc1 (stereo partly drawn) | 0.143 ± 0.4 | –
25 | O=[N+]([O-])c1ccc([As](=O)(O)O)cc1 | 1.24 ± 0.7 | –

Rewritten with tabs: part of the list above
Row	Structure (SMILES)	mitochondrial oxygen consumption rate normalised (2 µM)	mitochondrial oxygen consumption rate normalised (10 µM)
3	O=P1(NCCCl)OCCCN1CCCl (stereo not drawn) [Ifosfamide]	0.177 ± 0.57	–
21	CC[C@H]1[C@@H]2C[C@H]3[C@@H]4N(C)c5ccccc5[C@]45C[C@@H]([C@@H]2[C@H]5O)N3[C@@H]1O	-0.41 ± 0.68	–

More entries follow.

Row | Structure (SMILES) | mitochondrial oxygen consumption rate normalised (2 µM) | mitochondrial oxygen consumption rate normalised (10 µM)
26 | COC(=O)C(c1ccccc1)C1CCCCN1 (stereo not drawn) | 0.333 ± 1.8 | –
27 | CO[C@]12C[C@@H](COC(=O)c3cncc(Br)c3)CN(C)[C@@H]1Cc1cn(C)c3cccc2c13 | 0.528 ± 0.35 | –
28 | CC(=O)[C@H]1CC[C@H]2[C@@H]3CC[C@@H]4C[C@H](O)CC[C@]4(C)[C@H]3CC[C@]12C | 0.21 ± 0.55 | –
29 | OC[C@@H](O)[C@H]1O[C@@H]2O[C@H](C(Cl)(Cl)Cl)O[C@@H]2[C@H]1O | -0.375 ± 0.41 | –
30 | C[N+]12CCC(CC1)C(OC(=O)C(O)(c1ccccc1)c1ccccc1)C2 (stereo not drawn) | -0.326 ± 0.77 | –
31 | CC(CC(C(N)=O)(c1ccccc1)c1ccccc1)N(C)C (stereo not drawn) | -0.0818 ± 0.19 | –
32 | CC(C)C[C@H](CN)CC(=O)O | -0.705 ± 0.86 | –
33 | CN(C)C(=S)SSC(=S)N(C)C | 0.386 ± 0.14 | 0.578 ± 0.018
34 | CC(C)(C)NCC(O)c1ccccc1Cl (stereo not drawn) | -0.202 ± 0.19 | –
35 | CCC(C)(C)O | 0.322 ± 1.2 | –
36 | CC(=O)O[C@H]1C[C@H](O[C@H]2[C@@H](O)C[C@H](O[C@H]3[C@@H](O)C[C@H](O[C@H]4CC[C@@]5(C)[C@H](CC[C@@H]6[C@@H]5C[C@@H](O)[C@]5(C)[C@@H](C7=CC(=O)OC7)CC[C@]65O)C4)O[C@@H]3C)O[C@@H]2C)O[C@H](C)[C@H]1O[C@@H]1O[C@H](CO)[C@@H](O)[C@H](O)[C@H]1O | -4.61 ± 0.46 | –
37 | COc1ccc(CCN2CCC(Nc3nc4ccccc4n3Cc3ccc(F)cc3)CC2)cc1 | 0.412 ± 0.22 | –
38 | CCC(N)C(O)c1ccc(O)c(O)c1 (stereo not drawn) | 0.773 ± 1.1 | –
39 | CC1(C)C(C=C(Cl)Cl)C1C(=O)OC(C#N)c1cccc(Oc2ccccc2)c1 (stereo not drawn) | -0.0639 ± 1 | –
40 | Oc1cc(Cl)ccc1Oc1ccc(Cl)cc1Cl | -0.0667 ± 0.036 | –
41 | C[C@]12N[C@H](Cc3ccccc31)c1ccccc12 | -0.115 ± 0.096 | –
42 | C[C@]12CC[C@H]3[C@@H](CC[C@@]45O[C@@H]4C(O)=C(C#N)C[C@]35C)[C@@H]1CC[C@@H]2O | 1.05 ± 0.062 | –
43 | O=C(N/N=C/c1ccc([N+](=O)[O-])o1)c1cc([N+](=O)[O-])cc([N+](=O)[O-])c1O | -0.154 ± 0.61 | –
44 | COc1ccc(Cc2nccc3cc(OC)c(OC)cc23)cc1OC | -0.178 ± 0.71 | –
45 | CCC1(CC)C(=O)C=CNC1=O | 0.611 ± 0.93 | –
46 | O=C(NC(=O)c1c(F)cccc1F)Nc1cc(Cl)c(OC(F)(F)C(F)C(F)(F)F)cc1Cl (stereo not drawn) | -0.0407 ± 0.032 | –
47 | CNCC(=O)c1ccc(O)c(O)c1 | -0.648 ± 0.43 | –
48 | CC(C)(C)NCC(O)c1cc(Cl)c(N)c(Cl)c1 (stereo not drawn) | -0.257 ± 0.4 | –
49 | C[C@H](N)Cc1ccccc1 | -0.383 ± 1.1 | –
